# Among all 200,000 compounds or so, about 25 (0.01%) were called active. This list was built around the results that the source calls inconclusive (neither active nor inactive); the mix of calls is not that of the screen. The call rests on the fitted dose curve; in most records, active means well fitted inhibition curve with a large enough effect in the signal ratio, with a control signal flat (not every such curve was filed as active); inconclusive means small, poorly fitted or top-dose-only effect, or effect the other way, or a change in a side signal; inactive means flat fitted curve, though single readings scatter; the % refers to the signal ratio. Potencies of inconclusive entries are doubtful fits and often do not repeat.
# Assay: qHTS Assay for Modulators of Lamin A Splicing
# Settings: HeLa LMNA splicing GFP/RFP minigene ratio, 48 h; ratio change, negative = inhibition: at 46.1 µM (top of the series) unless noted
# In short: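 S3 HeLa cells stably expressing lamin A-EGFP splicing minigene plus DsRed2, 600 cells/well, 48 h compound exposure at 37C. Laser-scanning cytometry; analysed as GFP (500-530 nm)/RFP (575-640 nm) total intensity ratio; 0.5% DMSO vehicle.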
# On the % scale 0 is the no-effect control and ±100 the full control effect; potency means the concentration at half of the fitted maximal effect.
Structure (SMILES),"ratio change, negative = inhibition",Potency
Cn1nc(-c2ccccc2)c2cc(C(=O)O)sc21,inconclusive: 3.57% [at 46 µM],
S=c1nn[nH]n1C12CC3CC(CC(C3)C1)C2,inactive: 2.93%,
Cc1noc(C)c1S(=O)(=O)N1CCCC(C(=O)Nc2ccc(Cl)cn2)C1 (centres undefined),inconclusive: -32.2%,
Cc1sc2nc(CSc3ccccc3)nc(N3CCN(C)CC3)c2c1C,inconclusive: 3.54%,
COc1ccc(NC(=O)CSC2=Nc3ccccc3C3=NC(CC(=O)NCc4ccco4)C(=O)N23)cc1 (centres undefined),inconclusive: 3.68% [at 46 µM],
O=C(Cn1c(-c2cccs2)cc2ccccc21)N1CCN(c2ccccc2F)CC1,inactive: 3.57% [at 46 µM],
CSc1nnc(-c2cc3c(s2)-c2ccccc2CC3)o1,inactive: -5.02%,
COc1ccc(S(=O)(=O)c2c(Nc3c(C)cccc3C)sc(C(=O)c3ccc4c(c3)OCO4)c2N)cc1,,"inconclusive: 0.794 µM [inhibitor, full curve]"
Cc1cc(C)c(C)c(S(=O)(=O)N2CCN(CC(=O)NC(=O)NCc3ccccc3)CC2)c1C,inconclusive: -19.3%,
Cc1cc(/C=N/n2cnnc2)c(C)n1-c1ccc(Cl)cc1,inconclusive: 11.9%,
c1ccc(N(c2ccccc2)c2nc(-n3ccnc3)nc(-n3ccnc3)n2)cc1,inconclusive: -11.1%,
Cc1oc(-c2ccccc2F)nc1CS(=O)(=O)CC(=O)N1CCN(Cc2ccccc2)CC1,,"inconclusive: 35.5 µM [fluorescent, single point]"
N#Cc1nc(Cc2cccc3ccccc23)oc1N1CCOCC1,inactive: -0.91%,
CCn1nc(C(=O)Nc2ccc(S(=O)(=O)Nc3ncccn3)cc2)c2ccccc2c1=O,inconclusive: -17.7% [at 9.22 µM],
O=c1c(-c2ccccc2)nc2cnc(N3CCOCC3)nc2n1CCc1ccccc1,inactive: -8.18%,
CCOC(=O)c1ccc(-c2ccc(/C=C(\C#N)C(=O)NCC3CCCO3)o2)cc1 (centres undefined),inconclusive: 30%,
CCN(CC)C(=S)SCC(=O)Nc1nc(-c2ccccc2)c(-c2ccccc2)o1,,"inconclusive: 11.2 µM [falling, partial curve]"
CC(=O)Cn1nnc2sc3c(c2c1=O)CCC(C(C)(C)C)C3 (centres undefined),,"inconclusive: 35.5 µM [activator, single point]"
O=c1onc(-c2cccs2)n1Cc1ccccc1,inconclusive: 32.9%,
CC(C)(C)C(=O)NC(=S)NNC(=O)c1sc2ccccc2c1Cl,inconclusive: 83.2%,
CNc1oc(-c2ccc(C)cc2)nc1P(=O)(c1ccccc1)c1ccccc1,inactive: 4.5%,

Structure (SMILES),"ratio change, negative = inhibition",Potency
COc1ccc(NC(=O)c2ccc(F)cc2)cc1S(=O)(=O)Nc1cc(C)ccc1Br,inconclusive: -34.9%,
COc1ccc(-c2cc(-c3ccc(N)cc3)nc(N)c2C#N)cc1OC,inconclusive: -14.5% [at 46 µM],
COC(=O)CSc1nc2ccccc2nc1SCC(=O)OC,inactive: -3.07%,
Brc1ccc2[nH]c3nc(SCCN4CCOCC4)nnc3c2c1,inactive: -10.2% [at 46 µM],
Cc1[nH]nc2ncc(C(=O)c3ccccc3O)cc12,inconclusive: 12.1%,
CCc1ccc(Nc2nnc(SCC(=O)N(C)CC(=O)Nc3ccccc3CC)s2)cc1,inconclusive: -33.2%,
CCN1/C(=C/c2cc[n+](C)cc2)C=Cc2cc(C)ccc21,,"inconclusive: 2.82 µM [fluorescent, full curve]"
COCCNC(=O)c1ccc(-n2c(SCc3cccnc3)nc3ccccc3c2=O)cc1,inactive: 2.39% [at 46 µM],
Cc1cccc(Cn2ccn(Cc3ccc(Cl)cc3)c(=O)c2=O)c1,inactive: 18.2% [at 46 µM],
Cc1ccc(-n2c(C)cc(C(=O)COc3c(CO)cc(F)cc3CO)c2C)cc1C,inconclusive: -51%,
COc1ccc(NC(=O)CCCn2c(=O)c3cccn3c3ccccc32)c(OC)c1,inconclusive: 1.37% [at 46 µM],
COc1ccc(-c2[nH]ncc2CNC(C)c2cn(C)nc2C)c(F)c1 (centres undefined),inconclusive: -8.09% [at 46 µM],
O=C(/C=C/c1cccs1)N1CCN(Cc2ccc3c(c2)OCO3)CC1,inconclusive: -1.05%,
O=S(=O)(NCc1ccccc1)c1ccc(Cl)cc1,inactive: 13.3%,
COc1cc2c(cc1NC(=O)c1ccccc1F)CCCC2,,"inconclusive: 35.5 µM [fluorescent, single point]"
Cc1ccccc1NS(=O)(=O)c1nnc(NC(=O)c2ccc(Cl)cc2)s1,inconclusive: -4.06% [at 46 µM],
C/C(=N\Nc1ccc(C(=O)O)cc1)c1nc2ccccc2n1C,inactive: 14.2%,
O=C(O)c1ccccc1OC(=O)C12CC3CC(CC(C3)C1)C2,inconclusive: 1.19% [at 46 µM],
CCOc1cccc(/C=N/N2C(=O)CSC2=S)c1O,inconclusive: -40.7% [at 46 µM],
COc1cc(O)c2c(c1)C(=O)c1cc(C)cc(O)c1C2=O,inactive: -16.5%,
CCOc1ccc(OCc2nnc(SCC(=O)NC3CCS(=O)(=O)C3)n2-c2ccc(Cl)cc2)cc1 (centres undefined),inconclusive: 3.47%,

Structure (SMILES),"ratio change, negative = inhibition",Potency
CCc1ccc(NC(=O)c2ccc(F)c(S(=O)(=O)NC3CCCCCC3)c2)cc1,inconclusive: -30.8% [at 46 µM],
O=C(CCC1CCCC1)N1CCc2c([nH]c3ccccc23)C1c1ccc(Cl)cc1 (centres undefined),,"inconclusive: 2.82 µM [inhibitor, full curve]"
O=C(Nc1cccnc1)c1ccc(COc2cc(Cl)ccc2Cl)o1,inactive: 24.1%,
CCc1nnc(NC(=O)CSc2nnc(CNc3ccc(Cl)cc3)o2)s1,inconclusive: -14.3%,
CCc1c(-c2n[nH]c(=S)n2Cc2ccccc2)csc1C,inconclusive: -22.3%,
NS(=O)(=O)c1cc2c(cc1Cl)NC(CSCc1ccccc1)=NS2(=O)=O,inconclusive: -7.14%,
COc1ccc(Nc2ncnc3sc4c(c23)CCCC4)cc1,inconclusive: 7.07% [at 46 µM],
Cc1cc(C(c2ccc(C)o2)c2ccc(C)o2)c(O)c([N+](=O)[O-])c1,inactive: -8.56%,
CCN(CC)S(=O)(=O)c1ccc2c(c1)N(CC(=O)N1CCN(c3cccc(C)c3C)CC1)C(=O)CO2,inconclusive: -17.8% [at 46 µM],
O=c1[nH]c(-c2cccnc2)nc2ccccc12,inactive: -0.755%,
O=C(CSc1n[nH]c(-c2ccccc2Cl)n1)NCCc1ccccc1,inconclusive: 11.8% [at 46 µM],
O=C(NCC1CCCO1)c1cc(C(=O)C2CCCCC2)c[nH]1 (centres undefined),inconclusive: 2.4% [at 9.22 µM],
COc1cccc(NC(=O)C2CCCN2C(=O)Nc2ccccc2F)c1 (centres undefined),inconclusive: 31%,
Cc1ccc(-c2nc3ccccc3c(=O)n2Cc2ccccc2)cc1,inconclusive: -19.3%,
CCN(c1ccc(NC(=O)COC(=O)/C=C/c2cccs2)cc1)C(C)C,inactive: -9.36% [at 46 µM],
CC(C)C[C@H](NC(=O)Nc1cccc(C(F)(F)F)c1)C(=O)O,inconclusive: -1.39%,
CCN(CC)CCSc1c(C(C)C)cnc2c1c(=O)n(C)c(=O)n2C,inconclusive: -1.57% [at 46 µM],
C=CCn1c(SCC(=O)N2CCOCC2)nc(O)cc1=O,inactive: 12.2%,
COc1cccc(/C=C/C(=O)NCc2cn3cc(Cl)ccc3n2)c1,inconclusive: 18.2% [at 46 µM],
COc1ccccc1/C=C/C(=O)OCC(=O)Nc1c(F)cccc1F,inconclusive: 21% [at 46 µM],
CCN(CC)c1ccc(C(=O)N/N=C(\C)c2cccnc2)cc1,inactive: -21.3% [at 46 µM],

Structure (SMILES),"ratio change, negative = inhibition",Potency
CC(C)(C)c1ccc(OC(=O)c2ccc3snnc3c2)cc1,inconclusive: -9.37%,
CC(C)C(=O)Nc1ccc(NC(=O)c2cccc(F)c2)cn1,inconclusive: 15%,
Cc1nc(N2N=C(c3ccc(Cl)cc3)CC2c2ccco2)sc1C(=O)N(C)C (centres undefined),inconclusive: -41.2% [at 46 µM],
c1csc(CNc2nc(-c3ccoc3)nc3ccccc23)c1,inconclusive: -26.3%,
COc1ccccc1CNC(=O)c1cccs1,inactive: 1.72%,
Cc1ccc2ccc(C(Nc3cccc(C(F)(F)F)c3)c3cccnc3)c(O)c2n1 (centres undefined),inconclusive: -43% [at 46 µM],
Cn1ccc(=S)c2ccccc21,inactive: -7.23% [at 9.22 µM],
O=C1c2ccccc2NC(c2ccc([N+](=O)[O-])cc2)N1O (centres undefined),inconclusive: -30.2% [at 46 µM],
COC(=O)c1cc(Cl)c(NC(=O)/C=C/c2ccc(OC)cc2)cc1OC,inactive: -6.19%,
CC/C(C)=N/Nc1cccc([N+](=O)[O-])c1,inactive: 11.3%,
Cc1cc2nc(SC(C)C(=O)O)[nH]c2cc1C (centres undefined),inconclusive: 1.05%,
CCN(CC)CCNC(=O)C(=O)Nc1c2c(nn1-c1ccc(F)cc1)CSC2,inconclusive: -12.2% [at 46 µM],
CN1CCN(c2nc(C#N)cc(-c3ccccc3)n2)CC1,inconclusive: -8.11%,
CCOC(=O)/C=C/C(=O)OCC(=O)Nc1cccc(Br)c1,inconclusive: -33% [at 46 µM],
CCOC(=O)c1cnc(-c2ccccc2)nc1C(F)(F)F,inconclusive: 19.9% [at 46 µM],
CSc1nsc(N/N=C/c2ccc3c(c2)OCO3)c1C#N,inactive: 5.25% [at 9.22 µM],
Cc1ccc([N+](=O)[O-])cc1NC1OC(CO)C(O)C1O (centres undefined),inconclusive: -7.06%,
Cc1ccc(C)c(N2CCN(C(=O)c3cc(S(=O)(=O)N4CCOCC4)ccc3F)CC2)c1,,"inconclusive: 25.1 µM [fluorescent, single point]"
Cc1noc(C)c1CSc1nc2ccccc2nc1NS(=O)(=O)c1ccc(Cl)cc1,inconclusive: 32%,
CCOc1ccc(NC(=O)C(=O)NCC(c2cccnc2)N2CCc3ccccc32)cc1 (centres undefined),inactive: 11.4% [at 46 µM],
O=C(CCC1N=C2c3ccccc3N=C(SCc3ccccc3Cl)N2C1=O)NCc1ccco1 (centres undefined),,"inconclusive: 12.6 µM [activator, single point]"

# Among those listed so far, 3 have a CF3 group.
Structure (SMILES),"ratio change, negative = inhibition",Potency
CC(C)C[C@H](NC(=O)Nc1cccc(C(F)(F)F)c1)C(=O)O,inconclusive: -1.39%,
Cc1ccc2ccc(C(Nc3cccc(C(F)(F)F)c3)c3cccnc3)c(O)c2n1 (centres undefined),inconclusive: -43% [at 46 µM],
CCOC(=O)c1cnc(-c2ccccc2)nc1C(F)(F)F,inconclusive: 19.9% [at 46 µM],

# Source: PubChem BioAssay AID1487 (National Center for Advancing Translational Sciences (NCATS), 2009)
